# Assay results from patent publication US20120115819A1, “Pentacycline Compounds” (priority 2009, published 2012).
# The name of at least one read-out is uncertain.
# How the values were obtained:
# Format in all cases: cell-based
# [1] = tested on: S. aureus SA100 (ATCC 13709, MSSA, Smith strain); assay: Minimum inhibitory concentration (MIC) assay, strain SA100; details: numeric value, control compounds
# [2] = tested on: S. aureus SA101 (ATCC 29213, MSSA); assay: Minimum inhibitory concentration (MIC) assay, strain SA101; details: numeric value, control compounds
# [3] = tested on: E. cloacae EC108 (ATCC 13047, wt); assay: Minimum inhibitory concentration (MIC) assay, strain EC108; details: EC108 (column inferred); control compounds, numeric
# [4] = tested on: A. baumanii AB110 (ATCC 19606, wt); assay: Minimum inhibitory concentration (MIC) assay, strain AB110; details: AB110 (column inferred); control compounds, numeric
# [5] = tested on: P. aeruginosa PA111 (ATCC 27853, wt); assay: Minimum inhibitory concentration (MIC) assay, strain PA111; details: PA111 (column inferred); control compounds, numeric
smiles,measurement,setting,value
"CN(C)c1ccc(O)c2c1C[C@H]1C[C@H]3[C@H](N(C)C)C(O)=C(C(N)=O)C(=O)[C@@]3(O)C(O)=C1C2=O [Mino., Minocycline]",MIC SA100 13709,[1],0.06
same,MIC SA101 29213,[2],0.06
same,MIC,[3],2
same,MIC,[4],0.06
same,MIC,[5],16
